# Experimental data: publication PMC11212424
# The chains behind the UniProt entries cited, without tags or fusion partners.
# UniProt Q2EJA0: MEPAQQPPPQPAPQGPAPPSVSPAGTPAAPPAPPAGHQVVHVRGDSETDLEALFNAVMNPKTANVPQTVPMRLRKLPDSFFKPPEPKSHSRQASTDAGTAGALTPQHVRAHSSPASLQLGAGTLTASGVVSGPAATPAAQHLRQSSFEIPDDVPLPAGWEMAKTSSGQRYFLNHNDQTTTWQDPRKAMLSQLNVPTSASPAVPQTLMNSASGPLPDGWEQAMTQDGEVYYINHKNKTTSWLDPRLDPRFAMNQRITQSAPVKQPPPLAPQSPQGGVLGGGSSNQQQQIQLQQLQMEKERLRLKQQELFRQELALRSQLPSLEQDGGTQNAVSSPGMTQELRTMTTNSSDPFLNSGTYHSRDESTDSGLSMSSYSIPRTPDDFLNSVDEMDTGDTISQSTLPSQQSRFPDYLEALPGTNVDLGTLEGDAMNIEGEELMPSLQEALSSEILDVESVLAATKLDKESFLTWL
# Results are given in words; binding and its absence hold for the method and conditions named. Binding seen in cells or lysates may run through a third protein. Here binding means that the protein was enriched with, or labelled near, the bait; the list need not be complete. Sequences can lack the tags named with a protein.
# Biological target: T1, Flag-Tudor-SN (Tudor staphylococcal nuclease) (UniProt Q66X93)
# T1 sequence: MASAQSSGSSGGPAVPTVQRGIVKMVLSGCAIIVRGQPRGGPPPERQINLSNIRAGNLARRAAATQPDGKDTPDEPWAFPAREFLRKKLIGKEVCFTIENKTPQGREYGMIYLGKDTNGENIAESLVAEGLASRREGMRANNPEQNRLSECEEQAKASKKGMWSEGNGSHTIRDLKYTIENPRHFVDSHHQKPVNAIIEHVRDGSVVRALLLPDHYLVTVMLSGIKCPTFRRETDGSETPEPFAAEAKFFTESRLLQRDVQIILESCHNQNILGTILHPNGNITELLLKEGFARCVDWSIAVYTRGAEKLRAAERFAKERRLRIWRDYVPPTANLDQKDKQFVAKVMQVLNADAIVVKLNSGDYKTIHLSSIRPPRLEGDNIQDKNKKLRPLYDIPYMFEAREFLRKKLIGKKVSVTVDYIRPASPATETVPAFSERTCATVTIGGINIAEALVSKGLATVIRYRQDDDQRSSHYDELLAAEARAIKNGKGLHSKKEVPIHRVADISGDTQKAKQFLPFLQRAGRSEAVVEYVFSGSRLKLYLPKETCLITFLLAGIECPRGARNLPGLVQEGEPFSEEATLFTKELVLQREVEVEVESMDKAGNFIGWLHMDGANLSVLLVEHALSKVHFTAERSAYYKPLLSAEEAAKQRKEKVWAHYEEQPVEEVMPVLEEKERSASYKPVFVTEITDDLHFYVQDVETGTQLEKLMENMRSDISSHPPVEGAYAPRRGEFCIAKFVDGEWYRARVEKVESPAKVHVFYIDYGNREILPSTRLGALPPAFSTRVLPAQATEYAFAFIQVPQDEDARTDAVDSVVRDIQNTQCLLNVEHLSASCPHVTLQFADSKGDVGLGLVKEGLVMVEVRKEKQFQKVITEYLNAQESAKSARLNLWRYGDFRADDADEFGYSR
# Test: affinity purification with mass spectrometry; lysates of H9c2 cells stably expressing Flag-Tudor-SN (Flag-vector as control) on anti-Flag agarose beads, eluted, SDS-PAGE with silver staining, bands cut out and read by LC-MS/MS
substance,measurement,value
"Yes-associated protein (YAP), endogenous in H9c2 cells (from UniProt Q2EJA0 1-469)",binding,binds
